Laboratory results published in PubChem BioAssay AID2551 (National Center for Advancing Translational Sciences (NCATS), 2010).
Hit rate of the full screen: of about 310,000 compounds, about 17,000 (5.5%) were called active. Inconclusive means that the source gave no clear call. Such entries were picked first, then a sample of the others. Calls come from the whole dose curve; as a rule, active = well fitted inhibition curve with a large enough effect; inconclusive = small, poorly fitted or top-dose-only effect, or effect the other way; inactive = no such curve, though single readings can be large or run the other way. A potency beside an inconclusive call is a rough fit, not a confirmed value.

Chains of the proteins cited; added tags and fusions are not shown. Lines headed by an entry give the natural chain unless they say otherwise; changes in a name come on top.
UniProt P51450: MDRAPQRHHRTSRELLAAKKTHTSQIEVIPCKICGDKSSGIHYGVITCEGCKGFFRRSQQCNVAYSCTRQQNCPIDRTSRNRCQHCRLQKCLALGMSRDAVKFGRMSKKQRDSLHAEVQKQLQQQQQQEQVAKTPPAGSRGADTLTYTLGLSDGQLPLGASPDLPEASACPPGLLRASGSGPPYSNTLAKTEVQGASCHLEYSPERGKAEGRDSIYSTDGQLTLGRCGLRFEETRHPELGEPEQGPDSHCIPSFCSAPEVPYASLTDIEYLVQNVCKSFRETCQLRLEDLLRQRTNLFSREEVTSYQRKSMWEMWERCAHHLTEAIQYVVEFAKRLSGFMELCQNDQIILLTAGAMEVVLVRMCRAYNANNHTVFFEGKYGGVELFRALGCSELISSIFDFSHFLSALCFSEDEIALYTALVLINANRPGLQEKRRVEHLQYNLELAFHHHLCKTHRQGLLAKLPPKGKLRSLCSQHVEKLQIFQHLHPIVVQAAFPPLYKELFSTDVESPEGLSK

What follows are molecules tested against Nuclear receptor ROR-gamma (Mus musculus) (UniProt P51450) (assay: qHTS for inhibitors of ROR gamma transcriptional activity). Conditions: Drosophila S2 Gal4-RORgamma UAS-luciferase reporter, 20 h; series mostly up to 53.6 µM.
How it was run: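 In this cell-based reporter format, copper sulfate (700 uM final) drives Gal4–ROR gamma fusion expression from a metallothionein promoter in Drosophila Schneider cells; compounds preincubated 1 hr, reporter read after 20 hr at ambient temperature.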
Note: nearly all actives have a fitted effect of over 60% in size.
Potency is the fitted concentration of half-maximal effect.

SMILES	Potency
O=C(CN1C(=O)c2cccnc2Oc2ccc(Cl)cc21)NC1CCCCCC1	inconclusive: 22.4 µM [inhibitor, partial curve]
O=C(Nc1ccc([N+](=O)[O-])cc1)Nc1ccc2c(c1)OCCO2	inactive
CCC(=O)Nc1ccc(NC(=O)c2ccccc2)nc1	inconclusive: 12.6 µM [inhibitor, single point]
COC(=O)c1sc2nc3c(cc2c1N)COC(C)(C)C3	inconclusive: 28.2 µM [activator, single point]
O=C(CSc1ncnc2c1cnn2-c1cccc(Cl)c1)NCC1CCCO1 (stereo not given)	inconclusive: 35.5 µM [activator, single point]
CC(=O)n1nc(-c2ccc(Cl)cc2)nc1NCc1ccco1	inconclusive: 0.631 µM [activator, full curve, poor fit]
CC1(C)Cc2cccc(OCC(=O)N3CCN(c4ccccc4)CC3)c2O1	inconclusive: 1.12 µM [activator, partial curve]
c1ccc(C2=NNC(=NC3CC3)SC2)cc1	active: 14.1 µM
O=C1C=C(Nc2ccc(Cl)cc2)CC(c2ccco2)C1 (stereo not given)	inconclusive: 22.4 µM [activator, single point]
CS(=O)(=O)c1ccc2nc(NC(=O)c3ccc(Cl)cc3)sc2c1	inconclusive: 17.8 µM [activator, partial curve]
Cc1ccc(C)c(NC(=S)NNC(=O)c2csc(C)c2)c1	active: 3.55 µM
COc1ccc2[nH]c3c(C)c4ccncc4c(C)c3c2c1	active: 3.16 µM
Cc1ccc(NC(=O)Cc2ccc(F)cc2)cc1	inconclusive: 14.1 µM [activator, partial curve, poor fit]
Cn1nc(C(C)(C)C)c([N+](=O)[O-])c1C(=O)Nc1ccccc1	inconclusive: 15.8 µM [activator, single point]
C/C(=N\Nc1nccnc1Cl)c1ccc(Cl)c(Cl)c1	inconclusive: 22.4 µM [inhibitor, single point]
O=C(COc1ccc2c(c1)OCO2)NC12CC3CC(CC(C3)C1)C2	inconclusive: 17.8 µM [activator, single point]
N#C/C(=C\c1ccc(-c2ccc(Br)cc2)o1)C(=O)NCCc1c[nH]c2ccccc12	inconclusive: 35.5 µM [activator, single point]
O=[N+]([O-])c1cccnc1N1CCC(c2cc(-c3ccc(Cl)cc3)n[nH]2)CC1	inconclusive: 2.51 µM [inhibitor, single point]
CC(C)CCNC(=O)c1c[nH]c2ccc(S(=O)(=O)N3CCC4(CC3)OCCO4)cc2c1=O	inconclusive: 1.41 µM [activator, partial curve]
CCCc1cc(=O)n(-c2nc3ccccc3s2)[nH]1	inconclusive: 20 µM [inhibitor, single point]
Cc1ccc(S(=O)(=O)/N=C2/C=C(C3C(=O)CC(C)(C)CC3=O)C(=O)c3ccccc32)cc1	active: 11.2 µM
CCCCn1c(-c2csc3c2CCC(C)C3)n[nH]c1=S (stereo not given)	active: 0.794 µM

SMILES	Potency
COc1ccc(Cc2nnc(NC(=O)CSc3ccc(Cl)cc3)s2)cc1OC	active: 12.6 µM
COc1cccc2cc(C(=O)NCCc3ccccc3)c(=O)oc12	inactive
Cc1ccccc1-c1ccc2ncnc(NC3CC3)c2c1	inconclusive: 11.2 µM [activator, single point]
COC(=O)c1c(NC(=O)c2ccccc2F)sc2c1C(C(=O)OC)CC2 (stereo not given)	inconclusive: 12.6 µM [activator, partial curve]
O=C1C2CCCN2C(c2ccc(F)cc2)N1c1nccs1 (stereo not given)	inconclusive: 17.8 µM [inhibitor, single point]
Cc1ccc(C)c(OCCCCn2ccnc2)c1	inconclusive: 20 µM [inhibitor, partial curve, poor fit]
Cc1cccc(CSc2nnc([C@@H]3CCCN3C(=O)OC(C)(C)C)o2)c1	inactive
O=C(Nc1ccc(S(=O)(=O)N2CCc3ccccc32)cc1)c1ccc2c(c1)OCO2	inconclusive: 10 µM [activator, partial curve]
CCN(CC)S(=O)(=O)c1ccc(N2CCN(c3ccccc3OC)CC2)c(N)c1	inconclusive: 3.98 µM [activator, single point]
O=C(Nc1ccc(-n2ccc(C(F)(F)F)n2)cc1)Nc1cccc(Cl)c1	inconclusive: 35.5 µM [inhibitor, single point]
CCC(C)C(=O)OC1C2CC3=C4CC(=O)OC(c5ccoc5)[C@]4(C)CCC3[C@@](C)(C2=O)C(CC(=O)OC)C1(C)C (stereo not given in full)	inactive
NC(=O)C(c1ccc(Cl)cc1)c1ccc(Sc2ccccc2)nn1 (stereo not given)	inconclusive: 3.55 µM [activator, single point]
CCCOc1ccc(/C=c2\sc3ncnn3c2=O)cc1	inactive
CC1CC(C)(C)NC(=S)N1CCCC(=O)N1CCN(c2ccccc2F)CC1 (stereo not given)	active: 14.1 µM
COc1ccc(Cl)cc1NC(=O)CC1CCCC1	inactive
Cc1ccc(OCCSc2nc(NC(C)C)nc(NC(C)C)n2)cc1	inconclusive: 25.1 µM [inhibitor, single point]
CCN(CC)C(=O)c1ccc(-c2nnc(Nc3ccc(C(=O)NC)cc3)c3ccccc23)cc1	inactive
COC(=O)c1ccc(-c2nc(CN3CCN(Cc4cccc(C)c4)CC3)c(C)o2)cc1	inactive
CC(=O)c1ccc(OCCCC(=O)Nc2cccc(S(=O)(=O)N(C)C)c2)cc1	inconclusive: 22.4 µM [activator, single point]
COc1cccc(NS(=O)(=O)c2ccc(NC(C)=O)cc2)c1	inconclusive: 12.6 µM [activator, single point]
N#Cc1c(N)n(CCNC(=O)c2ccccc2)c2nc3ccccc3nc12	inconclusive: 35.5 µM [activator, single point]
CC(CC(=O)N1CCc2ccccc21)c1ccccc1 (stereo not given)	inconclusive: 2 µM [activator, full curve, poor fit]

A few values from the entries so far:
Entry of N#Cc1c(N)n(CCNC(=O)c2ccccc2)c2nc3ccccc3nc12 under Potency: inconclusive: 35.5 µM [activator, single point]
Entry of CC1CC(C)(C)NC(=S)N1CCCC(=O)N1CCN(c2ccccc2F)CC1 (stereo not given) under Potency: active: 14.1 µM
Entry of O=C(CSc1ncnc2c1cnn2-c1cccc(Cl)c1)NCC1CCCO1 (stereo not given) under Potency: inconclusive: 35.5 µM [activator, single point]

(next part)

SMILES	Potency
CC(=O)N1CCN(C(=S)NC(=O)c2c(-c3ccccc3Cl)noc2C)CC1	active: 1.58 µM
COC(=O)c1ccc(NC(=O)C23CC4CC(C2)CC(n2cncn2)(C4)C3)cc1	inconclusive: 10 µM [activator, partial curve]
O=C1CC[C@@H](CN(Cc2ccccc2)Cc2cn[nH]c2-c2cc3ccccc3o2)N1	inconclusive: 14.1 µM [activator, partial curve, poor fit]
CC(C)c1ccc(CN2CCSCC2)cc1	inactive
Cc1cccc(-n2c(=S)[nH]c3sc4c(c3c2=O)CCc2ccccc2-4)c1	active: 0.355 µM
O=[N+]([O-])c1ccc2nc(C3CCCCC3)[nH]c2c1	inconclusive: 4.47 µM [activator, partial curve]
N#CC1=C(N)N(c2ccccc2)C2=C(C(=O)CCC2)C1c1ccsc1 (stereo not given)	inconclusive: 25.1 µM [inhibitor, single point]
S=C(NCCSCc1ccc(Cl)cc1)Nc1ccccc1	active: 2.51 µM
Cc1nc(C)c(N)c(=O)[nH]1	inactive
Cc1cc(/C=N/NC(=O)c2ccc(CN3CCOCC3)cc2)c(C)n1-c1ccccc1	inconclusive: 22.4 µM [inhibitor, single point]
O=C(Nc1ccncc1)Nc1cccc(C(F)(F)F)c1	inconclusive: 10 µM [activator, single point]
O=C(O)CC(NC(=S)NCc1ccccc1)C(=O)O (stereo not given)	active: 15.8 µM
COc1cccc(NC(=S)NC(C)c2ccc(OC)c(OC)c2)c1 (stereo not given)	active: 7.94 µM
O=c1[nH]c(C2CCN(S(=O)(=O)c3cccc(Cl)c3)CC2)nc2c1nnn2Cc1ccccc1	inconclusive: 12.6 µM [activator, single point]
COc1ccc2c(c1)c1nc3ccccc3nc1n2Cc1ccc(OC)c(OC)c1	inconclusive: 35.5 µM [inhibitor, single point]
CCCC/C=C/[C@H](c1ccccc1)[C@H](CO)Cc1cnc2ccccc2c1	inactive
O=C(/C=C/c1ccccc1)NNc1ccc(Cl)cc1	inconclusive: 11.2 µM [activator, single point]
O=C(Nc1ccc2c(c1)OCO2)C1CCN(C(=O)c2ccc(Br)cc2)CC1	inactive
COc1ccc(NC(=O)CSc2nnc(-c3ccccc3Cl)n2Cc2ccco2)c(OC)c1	inactive
Cn1ccnc1C1CCCCN1Cc1nc(Cc2ccccc2F)no1 (stereo not given)	inconclusive: 4.47 µM [inhibitor, partial curve]
CCOCCCNC(=O)c1cn(C)c(=O)c2cc(OC)c(OC)cc12	inconclusive: 0.794 µM [activator, single point]
